# Reference: PubChem BioAssay AID248 (DTP/NCI, 2004)
# The list shows only some results of the screen, not a fair sample: it covers a few groups of compounds. Not every dose and run of a compound is shown. T/C: endpoint of the treated group in % of that of the vehicle group. Where survival is the endpoint, this PubChem deposit counts one and a half times the control or more as active, and values a quarter to a half above the control carry no call in these data; other NCI protocols may use other cut-offs. Some T/C values are marked as having no survivor count here; that says nothing about deaths at the dose. Schedules are NCI's codes, read here as Q, the interval in days (D) or hours (H), X, the number of doses. Some entries were tested several times; the results are listed from low to high.
# Test system: L1210 leukemia ip in BDF1 mice, survival T/C
# Assay: NCI In Vivo Anticancer Drug Screen. Data for tumor model L1210 Leukemia (intraperitoneal) in B6D2F1 (BDF1) mice
# Settings: T/C endpoint: mean survival time, vehicle: saline, higher T/C = longer survival
# [1] = dose: 10.0 mg/kg/injection, schedule: Q01DX001 (ip)
# [2] = dose: 10.0 mg/kg/injection, schedule: Q01DX009 (ip)
smiles,measurement,setting,value
ClCCN(CCCl)C1CCCCC1,T/C,"dose: 0.29 mg/kg/injection, schedule: Q01DX009 (ip)",128 % of control [survivor count not shown]
same,T/C,"dose: 0.29 mg/kg/injection, schedule: Q04DX003 (ip)",102 % of control [survivor count not shown]
same,T/C,"dose: 0.44 mg/kg/injection, schedule: Q01DX009 (ip)",140 % of control [survivor count not shown]
same,T/C,"dose: 0.44 mg/kg/injection, schedule: Q04DX003 (ip)",113 % of control [survivor count not shown]
same,T/C,"dose: 0.5 mg/kg/injection, schedule: Q01DX001 (ip)",106 % of control [survivor count not shown]
same,T/C,"dose: 0.66 mg/kg/injection, schedule: Q01DX009 (ip)",154 % of control [survivor count not shown]
same,T/C,"dose: 0.66 mg/kg/injection, schedule: Q04DX003 (ip)",116 % of control [survivor count not shown]
same,T/C,"dose: 0.7 mg/kg/injection, schedule: Q01DX015 (ip)",121 % of control [survivor count not shown]
same,T/C,"dose: 1.0 mg/kg/injection, schedule: Q01DX001 (ip)",104 % of control [survivor count not shown]
same,T/C,"dose: 1.0 mg/kg/injection, schedule: Q01DX009 (ip)",103 [survivor count not shown] and 130 % of control [survivor count not shown]
same,T/C,"dose: 1.0 mg/kg/injection, schedule: Q04DX003 (ip)",116 % of control [survivor count not shown]
same,T/C,"dose: 1.3 mg/kg/injection, schedule: Q01DX015 (ip)",134 % of control [survivor count not shown]
same,T/C,"dose: 1.5 mg/kg/injection, schedule: Q01DX009 (ip)",109 % of control [survivor count not shown]
same,T/C,"dose: 1.8 mg/kg/injection, schedule: Q01DX001 (ip)",110 % of control [survivor count not shown]
same,T/C,"dose: 2.0 mg/kg/injection, schedule: Q01DX001 (ip)",125 % of control [survivor count not shown]
same,T/C,"dose: 2.1 mg/kg/injection, schedule: Q01DX015 (ip)",136 % of control [survivor count not shown]
same,T/C,"dose: 3.0 mg/kg/injection, schedule: Q01DX001 (ip)",119 % of control [survivor count not shown]
same,T/C,"dose: 3.5 mg/kg/injection, schedule: Q01DX015 (ip)",93 % of control [survivor count not shown]
same,T/C,"dose: 4.0 mg/kg/injection, schedule: Q01DX001 (ip)",128 % of control [survivor count not shown]
same,T/C,"dose: 5.0 mg/kg/injection, schedule: Q01DX001 (ip)",125 [survivor count not shown] and 141 % of control [survivor count not shown]
same,T/C,"dose: 7.0 mg/kg/injection, schedule: Q01DX001 (ip)",130 % of control [survivor count not shown]
same,T/C,"dose: 8.0 mg/kg/injection, schedule: Q01DX001 (ip)",142 % of control [survivor count not shown]
same,T/C,[1],148 % of control [survivor count not shown]
same,T/C,"dose: 85.0 micrograms/kg/injection, schedule: Q01DX009 (ip)",100 % of control [survivor count not shown]
same,T/C,"dose: 128.0 micrograms/kg/injection, schedule: Q01DX009 (ip)",105 % of control [survivor count not shown]
same,T/C,"dose: 193.0 micrograms/kg/injection, schedule: Q01DX009 (ip)",103 % of control [survivor count not shown]
ClCCNCCBr,T/C,"dose: 0.31 mg/kg/injection, schedule: Q01DX009 (ip)",103 % of control [survivor count not shown]
same,T/C,"dose: 0.31 mg/kg/injection, schedule: Q04DX003 (ip)",91 % of control [survivor count not shown]
same,T/C,"dose: 0.62 mg/kg/injection, schedule: Q01DX009 (ip)",112 % of control [survivor count not shown]
same,T/C,"dose: 0.62 mg/kg/injection, schedule: Q04DX003 (ip)",131 % of control [survivor count not shown]
same,T/C,"dose: 1.25 mg/kg/injection, schedule: Q01DX009 (ip)",120 % of control [survivor count not shown]
same,T/C,"dose: 1.25 mg/kg/injection, schedule: Q04DX003 (ip)",98 % of control [survivor count not shown]
same,T/C,"dose: 2.5 mg/kg/injection, schedule: Q01DX009 (ip)",114 [survivor count not shown] and 117 % of control [survivor count not shown]
same,T/C,"dose: 2.5 mg/kg/injection, schedule: Q04DX003 (ip)",93 [survivor count not shown] and 104 % of control [survivor count not shown]
same,T/C,"dose: 5.0 mg/kg/injection, schedule: Q01DX009 (ip)",109 [survivor count not shown] and 115 % of control [survivor count not shown]
same,T/C,"dose: 5.0 mg/kg/injection, schedule: Q04DX003 (ip)",117 [survivor count not shown] and 120 % of control [survivor count not shown]
same,T/C,"dose: 6.6 mg/kg/injection, schedule: Q04DX003 (ip)",128 % of control [survivor count not shown]
same,T/C,[2],103 % of control [survivor count not shown]
same,T/C,"dose: 10.0 mg/kg/injection, schedule: Q04DX003 (ip)","108 [survivor count not shown], 130 [survivor count not shown], 131 % of control [survivor count not shown]"
same,T/C,"dose: 15.0 mg/kg/injection, schedule: Q04DX003 (ip)",103 % of control [survivor count not shown]
COCc1c(CN(CCCl)CCCl)cnc(C)c1O,T/C,"dose: 4.4 mg/kg/injection, schedule: Q01DX001 (ip)",107 % of control [survivor count not shown]
same,T/C,"dose: 4.4 mg/kg/injection, schedule: Q01DX009 (ip)",143 % of control [survivor count not shown]
same,T/C,"dose: 6.7 mg/kg/injection, schedule: Q01DX001 (ip)",128 % of control [survivor count not shown]
same,T/C,"dose: 6.7 mg/kg/injection, schedule: Q01DX009 (ip)",150 % of control [survivor count not shown]
same,T/C,"dose: 9.5 mg/kg/injection, schedule: Q01DX001 (ip)",167 % of control [survivor count not shown]
same,T/C,[1],128 % of control [survivor count not shown]
same,T/C,[2],192 % of control [survivor count not shown]
same,T/C,"dose: 15.0 mg/kg/injection, schedule: Q01DX001 (ip)",148 % of control [survivor count not shown]
same,T/C,"dose: 15.0 mg/kg/injection, schedule: Q01DX009 (ip)",95 % of control [survivor count not shown]
same,T/C,"dose: 19.0 mg/kg/injection, schedule: Q01DX001 (ip)",149 % of control [survivor count not shown]
